Measurements from PubChem BioAssay AID2551 (National Center for Advancing Translational Sciences (NCATS), 2010).
About 17,000 (5.5%) of roughly 310,000 compounds were called active. Inconclusive results, whose numbers are uncertain, are shown with a selection of clear calls. The call rests on the fitted dose curve; in most records, active means well fitted inhibition curve with a large enough effect; inconclusive means small, poorly fitted or top-dose-only effect, or effect the other way; inactive means no such curve, though single readings can be large or run the other way. Where the call is inconclusive, the potency comes from a doubtful curve fit.

Chains of the proteins cited; added tags and fusions are not shown. Lines headed by an entry give the natural chain unless they say otherwise; changes in a name come on top.
UniProt P51450: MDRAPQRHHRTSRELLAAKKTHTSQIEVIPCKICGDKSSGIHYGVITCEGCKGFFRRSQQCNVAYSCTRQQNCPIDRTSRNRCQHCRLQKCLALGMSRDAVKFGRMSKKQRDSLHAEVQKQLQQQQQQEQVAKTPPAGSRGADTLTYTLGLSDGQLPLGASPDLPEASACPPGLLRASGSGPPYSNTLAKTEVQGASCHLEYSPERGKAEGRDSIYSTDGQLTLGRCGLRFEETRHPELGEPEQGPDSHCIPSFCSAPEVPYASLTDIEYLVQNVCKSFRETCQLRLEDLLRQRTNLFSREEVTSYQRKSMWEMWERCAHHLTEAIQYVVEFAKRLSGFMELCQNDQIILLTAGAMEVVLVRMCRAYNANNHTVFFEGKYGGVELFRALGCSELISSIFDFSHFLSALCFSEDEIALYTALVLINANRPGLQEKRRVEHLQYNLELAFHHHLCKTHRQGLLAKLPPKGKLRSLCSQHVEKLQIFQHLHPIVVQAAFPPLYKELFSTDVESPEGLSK

What follows are molecules tested against Nuclear receptor ROR-gamma (Mus musculus) (UniProt P51450) (assay: qHTS for inhibitors of ROR gamma transcriptional activity). Details: Drosophila S2 Gal4-RORgamma UAS-luciferase reporter, 20 h; activity change, negative = inhibition: at 53.6 µM (top of the series).
How it was run: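 Using a luciferase readout, inhibitors were identified by reduced reporter activity in Drosophila cells coexpressing a copper-inducible Gal4–ROR gamma fusion and UAS-driven Photinus luciferase, incubated 20 hr after 700 uM copper sulfate.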
Further: nearly all actives have a fitted effect of over 60% in size.
On the % scale 0 is the no-effect control and ±100 the full control effect; potency means the concentration at half of the fitted maximal effect.

Activity change, negative = inhibition, inactive:
COC(=O)c1cc(-c2ccccc2)sc1N 29.5%
O=C(N/N=C/c1ccc(O)cc1)c1cc(C23CC4CC(CC(C4)C2)C3)[nH]n1 1.87%
C=CCn1c(=O)c2ccc(C(=O)NCc3ccccc3)cc2n(Cc2cccc(Cl)c2)c1=O -41.1%
O=[N+]([O-])c1cccc(-c2nnc(-c3ccccc3F)o2)c1 -1.11%
COc1cc2c(C(=O)N3CCN(c4ccccc4C)CC3)c(C)oc2cc1Br 3.33%
CCOC(=O)C1=C(c2ccccc2)OC(N)=C(C#N)C1c1cccs1 (stereo unspecified) 20.2%
CCc1cc(=O)oc2c3c(cc(OCC(=O)NCCCCCC(=O)O)c12)OC(C)(C)CC3 0.71%
O=C(c1ccc(CNS(=O)(=O)c2ccccc2)cc1)N1CCN(c2ccccn2)CC1 28.5%
O=C(c1ccc(Cl)nc1)N1CCN(S(=O)(=O)c2ccccc2)CC1 -25%
O=C(CCN1C(=O)/C(=C\c2cccc(Br)c2)SC1=S)NCCCN1CCOCC1 -20.8%
Cc1cc2cc(C(c3nnnn3Cc3ccccc3)N3CCc4ccccc43)c(=O)[nH]c2cc1C (stereo unspecified) -11.3%
CC(=O)O[C@H](CC(=O)O)C[N+](C)(C)C 23.5%
COc1ccc(-c2c(C)nc(N)nc2-c2ccc(OC)cc2O)cc1 -17.4%
CCOCC(=O)Nc1nc2ccc(C)cc2s1 -39.4%

Potency, inconclusive:
CCCCCCOC(=O)CCn1[nH]c(=O)c2ccccc2c1=O 5.01 µM [inhibitor, partial curve]
O=C(CN1CCN(C(=S)NC2CCCC2)CC1)Nc1ccc(Oc2ccccc2)cc1 10 µM [activator, partial curve]
O=S(c1ccsc1)c1ccsc1 3.16 µM [inhibitor, single point]
COc1ccc(N/N=C(/N=Nc2nc(C)cc(=O)[nH]2)c2ccccc2)cc1 23.1 µM [inhibitor, single point]
CN(C)c1nnnn1-c1ccc(Oc2ncc(C(F)(F)F)cc2Cl)cc1 35.5 µM [inhibitor, single point]
COC(=O)c1ccc(N2C(=O)CC(Sc3n[nH]c(C)n3)C2=O)cc1 (stereo unspecified) 22.4 µM [inhibitor, single point]
CC(C)C[C@H](NC(=O)c1ccc(OC2CCN(C(=O)C3CC3)CC2)cc1)C(N)=O 14.1 µM [activator, partial curve, poor fit]
Cc1cc(C)c2nc(N3CCCN(C(=O)c4ccco4)CC3)c(C#N)cc2c1 3.55 µM [inhibitor, single point]
CC(=O)c1ccc(NC(=O)N2CCN(c3ccc(C)cc3)C(C)C2)cc1 (stereo unspecified) 12.6 µM [activator, partial curve]
O=c1c2[nH]c3ccccc3c2ncn1Cc1ccco1 20 µM [activator, partial curve]
ClC(=C\c1ccccc1)/C=N/N1CCN(c2ccccn2)CC1 2 µM [activator, full curve]
Cc1cc(C(F)(F)F)nn1CC(=O)NNC(=S)Nc1ccc(Cl)cc1 1.26 µM [inhibitor, partial curve]
Cc1nn(C)c(C)c1CNC(=O)c1nn2c(c1Cl)NC(c1cccs1)CC2C(F)(F)F (stereo unspecified) 35.5 µM [activator, single point]
N#C/C(=C/c1cccc([N+](=O)[O-])c1)c1nnc2n1CCCCC2 17.8 µM [inhibitor, single point]
COc1ccc(C(=O)c2c(C)c3cc(C)ccc3n2CC(O)CN2CCOCC2)cc1 (stereo unspecified) 35.5 µM [activator, single point]
Cc1cccc(C)c1Nc1nnc(SC/C(O)=C(\C#N)c2nc3ccccc3[nH]2)s1 10 µM [inhibitor, partial curve]
COc1ccc(N(CC(=O)NCc2ccccc2OC)S(=O)(=O)c2ccccc2[N+](=O)[O-])c(OC)c1 7.94 µM [activator, partial curve]
Cc1cccc(C(C)(C)C)c1OCCn1ccnc1 35.5 µM [inhibitor, single point]
Cc1ccc(NC(=O)COC(=O)c2csc3c2CCC(C)C3)cc1S(=O)(=O)N1CCCCC1 (stereo unspecified) 35.5 µM [activator, single point]
CCC1=C(C)CN(C(=O)NCCc2ccc(S(=O)(=O)NC(=O)NC3CCC(C)CC3)cc2)C1=O (stereo unspecified) 10 µM [activator, partial curve, poor fit]
COc1cc(CNc2ccc(NC(C)=O)cc2)ccc1OCc1ccccc1C 35.5 µM [activator, single point]
CCOC(=O)c1c(C)nc2sc3c(c2c1-c1ccc(OC)cc1)NC(c1ccccc1)NC3=O (stereo unspecified) 3.16 µM [activator, partial curve]
CC(=O)c1ccc(OCc2cc(C(=O)NCCn3nc(C)cc3C)no2)cc1 35.5 µM [activator, partial curve, poor fit]
COc1ccc(-c2nnn(Cc3ccccc3F)n2)cc1 14.1 µM [activator, single point]
Cc1ccc2sc(-c3ccc(NC(=O)c4cc(-n5cnnc5)ccc4Cl)cc3)nc2c1 2.24 µM [inhibitor, partial curve, poor fit]

Three successive entries from above:
Potency, inconclusive:
CC(C)C[C@H](NC(=O)c1ccc(OC2CCN(C(=O)C3CC3)CC2)cc1)C(N)=O 14.1 µM [activator, partial curve, poor fit]
Cc1cc(C)c2nc(N3CCCN(C(=O)c4ccco4)CC3)c(C#N)cc2c1 3.55 µM [inhibitor, single point]
CC(=O)c1ccc(NC(=O)N2CCN(c3ccc(C)cc3)C(C)C2)cc1 (stereo unspecified) 12.6 µM [activator, partial curve]

Next part.

Potency, active:
CCn1c(SCc2ccc(Cl)cc2)nc2nc3c(cc2c1=O)CCCC3 12.6 µM
CCn1c(=O)c([N+](=O)[O-])c(Cl)c2ccccc21 7.94 µM
Oc1ccc(Br)cc1-c1nc2cnccn2c1NC1CCCCC1 12.6 µM
Cc1c(NC(=O)c2ccc(-c3ccccc3)cc2)cccc1C(=O)O 10 µM
COc1cccc(-c2cc(C(=O)N3CCc4ccccc4C3)[nH]n2)c1 1.12 µM
COC(=O)CCC(=O)NC(=S)Nc1cc(Cl)ccc1Cl 10 µM
CNC(=S)N/N=C(\C)c1ccccc1 3.98 µM
